These are yes or no findings as the source states them, for the method shown. In cells and extracts the contact can be indirect. A yes stands for co-enrichment or nearness to the bait. Other partners may have been found.

These results are taken from article PMC7190567.

For the experiment, the target named is T1, Caveolin-1 (wild type) (dog) (UniProt P33724).
T1 sequence: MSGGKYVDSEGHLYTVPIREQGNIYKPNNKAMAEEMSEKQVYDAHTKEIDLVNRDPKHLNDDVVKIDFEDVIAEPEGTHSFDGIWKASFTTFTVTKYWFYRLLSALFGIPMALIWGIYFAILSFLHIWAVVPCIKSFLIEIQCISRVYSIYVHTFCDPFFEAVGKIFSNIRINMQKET
As to the kind of experiment: affinity purification with mass spectrometry; CAV1 immunoprecipitated with polyclonal anti-CAV1 on Dynabeads from B16F10(CAV1-E-cadherin) cells; trypsin digest, nano-ESI-MS/MS on an LTQ ion trap, Mascot; only proteins unique to this sample listed.

B1: Mitochondrial peptide methionine sulfoxide reductase (protein, UniProt Q9D6Y7 21-233)
chain: MGDSASKVISAEEALPGRTEPIPVTAKHHVSGNRTVEPFPEGTQMAVFGMGCFWGAERKFWVLKGVYSTQVGFAGGHTRNPTYKEVCSEKTGHAEVVRVVYRPEHISFEELLKVFWENHDPTQGMRQGNDFGTQYRSAVYPTSAVQMEAALRSKEEYQKVLSKHNFGPITTDIREGQVFYYAEDYHQQYLSKNPDGYCGLGGTGVSCPMAIKK
As for B1, the binding result is recorded as “binds”.

B2: MLX-interacting protein (protein, UniProt Q2VPU4 1-917)
chain: MAADVFMCSPRRPRSRGRSVLLKPQVPEDDDDSDTDEPSPPPPSGVATSARAHASAAPLPPRAGPGREEPPRRQQIIHSGHFMVSSPHREHPPKKGYDFDTVNKQTCQTYSFGKTSSCHLSIDASLTKLFECMTLAYSGKLVSPKWKNFKGLKLQWRDKIRLNNAIWRAWYMQYLEKRRNPVCHFVTPLDGSVDVDEHRRPEAITTEGKYWKSRIEIVIREYHKWRTYFKKRLQQHKDEDLSSLAQDDDMLYWHKHGDGWKTPVPMEEDSLLDTDMLMSEFSDTLFSTLSSHQPVAWPNPREIAHLGNADMIQPGLIPLQPNLDFMDTFEPFQDLFSSSRSIFGSMLPPPSSLPAADPSSPPSQGNILPNTALPPASLPNSLITSSAAPSLDPTEGQGCERTSQTVDPFIQPADFGPSEPPLSVPQPFLPVFTMTLLSPGPAPAPVPTALPLVPSPAPTLNPPTPPAFLQPQKFAGVSKSTPVITHTASATLTHDASATTFSQNQGLVITAHHPTPSSSPCALALSPVPQPPAVGPPQPHLTFIHPKPVSLTGVRHKQPPKIVPAPKPEPVSLVLKNACIAPAAFSGQPQKVIMTSAPLKREGILASTVSPSNVVIASAAITRASGVTEFLSHSTSSQPSPVSRLFSPSTVQDSLVKGEQVSLHGGSPQVPATGSSRDCPNSGQASPCPSEQSPSPQSPQNNCSGKSTDPKNVAALKNRQKHISAEQKRRFNIRMGFNTLNSLISNNSKQTSHAITLQKTMEYITKLQQERMQMQEEARRLREEIEELNTTIISCQQLLPATGVPVNCRQLDHMRDMFDEYVKSRTLQNWKFWIFSMIIKPLFESFKGMVSTSSLEEFHRTALSWLDQHCSLPVLRPMVLSTLRQLSTTTSILTDPSQLPEQASEAVTRMGKRSGES
On to B2, for which the binding entry is “binds”.

B3: Cyclin B3 (protein, UniProt Q810T2 1-1396)
chain: MPPPLLPKRSKLETEKAQSNKITPREEQQSEKIGKSNHAASSSSSSTQGAVKRRSVFEDVTNASHSQCVQSKEDNIELKSHVSKRTKKGVGEVTQKKIKSSKMGHVTSLSNMEKEFILDIPNKPKTLTTEEPSVFQKTLVLNEEPATKETCLMRKTLKSCAFHQETLLMEKPLTLLVETEDYNEFDTELMTSKKKDKPEDPTIIEEMTDLKKSVIRKVTLTSSPLWLKNKHVVQEEKPVIQEKSSFKRISLVSNVVTTKEKPPVKKPHFRKKKPTTEMKSLLQEPSLEEKYNTQEDASILKKPQVLQENTNNKDATLTEPVTFKGKHSANEATHTKKPSSSKNNPDPQGKGTNLRPLRVHPVTYENEPMSSKKSTTKKKDSHFHGPSVLPDKHSPQMEVSTVKKSLALPNPTTEEKMLHFPVATVLEKQHNMGEAPCLKKPSPLRKQQQLPKRRRFFSNSAVQETVIRKPLFFKMSTTEKDPPSQWPSALPKKHISPGELSKQKKQHVSPKHNMEEDSQCWLDSAFKKQLSREEPASTHTPLKLEMQQAITKETGFHLRNPLVLPTVTSEAKSLTKEPPSFREQNTSLLKRKSTTHTITLQQAQSEWQEMTDEDRNLFSIKPGSHRKEPIPEFLQNPLPPNENCLISQKLSHSMPFASQKTTSQERAHRKESVASNDDKNFFSQDLFSPFSSADEDTLKFHKSLDFQEQVDRKNDSHKKMFDSQDSVSEEESFLRKLFCKDRCSSTEELSQERTVALEQEFLLIKILNENTSSDVDEPLSHQSPHIQNHSDTTKEALEASEALEAPEALETLEALVASEDLEEPLNILEELSTENMVALMKMLVTEDESTKDSFSGNYTAAREAHAEKSLSLEETSINEAATLKESLSSQEKHRAELVTVLKELLVLMKNPSLKRVALAFQENPSNNVETLLREVLALVENSTADESTLQEKPSTKTDVTPKELLALEENSSNKKANPMDSLSFDHKPDTEMGEIARMVLTDEEYNIDTLYERVLALSQGLIAADQLSFTDLQNFEETKIVDEEEFFKSFLVFENKNSPNMSSNAFESRTDNSSAIMPSSKAFNPVENSNPYVSSSKSFKSTLGAKETEITIQDDSDSLERIEKEGQDPLLNTIYAKDVFNYLKEREEKFLVQKYMDGQMELTSDMRAILVDWLVEIQGSFQMTHETLYLAVKIMDLYLMKAQCKKNHLQLLGSTTYMIAAKFEESYPPSLSEFLFICEDMYEKSDMVSLESSILQTLNFDINIPTAYNFLRRYASCIHASMKTLTLSRFICEMTLQEYEYIEERPSKLAAASFILALYMRNLSNCVPTLEYFTGYKMAELHILVRKLNHLLNFRSHSILKNVFEKYSEETYFEVAKIPPLSKQDLENLLNCALFH
For the molecule B3, the binding entry is “binds”.

B4: Kinesin-like protein KIF9 (protein, UniProt Q9WV04 1-790)
chain: MGTRKKVQAFVRVRPTDDFAHEMIKYGEDNKSIDIHLKKDTRRGVVNNQQTDWSFKLDGVLHNASQDLVYETVAKDAVSQALDGYNGTIMCYGQTGAGKTYTMTGATENYKHRGILPRALQQVFRMIEERPTHAITVRVSYLEIYNENLFDLLSTLPYVGPSVTPMTIVENPQGIFIKGLSVHLTSQEEDAFSLLFEGETNRIIASHTMNKNSSRSHCIFTIYMEAHSRTLSDEKYITSKINLVDLAGSERLSKTGSEGRVLKEATYINKSLSFLEQAIIALGDQNRDHVPFRQSKLTHALKDSLGGNCNMVLVTNIYGEAAQLDETLSSLRFASRMKLVTTEPAINEKYDAERMVKNLEKELALLKQELAIHDSLSNRTLVNYDPMDEIQIAEINSQVRRYLEGTLDEIDIINLRQIQEVFNQFRVVLSQQEQEVESALRRKYTLIDKNDFAAISAVQKVGLMDIEGNLVGEPDGQSFGLGVAPFSVKPGKKPKTKKTPKDQFSSSARKEGASSPVSGKDFDVASISKTQLIPSSKDGDLKDMLARERETSSIEPLISDSPKEELRAPRPSTPPSRTVAFEEFKNERGSEINRIFKENKSILNERKKRASETTQRINAIKQEIDETKDALNFQKSLREKQGEYENKGLMIIDEEEFLLILKLKDLKKQYRNEYQELRDLRAEIQYCQRLVDQCRHRLLMEFDIWYNESFMIPEDVQVALKLGSSIRPGMVPISRIVCLGEDDQDRFSHLQQTVLPEGLDSITFYNAKVKTDQKHNYMKTMVGLQQSHRK
On to B4, for which the binding result is “binds”.

B5: HEAT repeat-containing protein 3 (protein, UniProt Q8BQM4 1-679)
chain: MGKSRTKRFKRPQFSPIESCQAEAAAASNGTGDEEDDGPAAELLEKLQHPSAEVRECACAGLARLVQQRPALPDLARRDAVRRLGPLLLDSSLAVRETAAGALRNLSACGGFDVCDDMVAKDIMTPLVALLRECLSGLDSNEMSPQEKADKRNPVESIANEAVNVLWNVCECSGRAVSIFNKEGCLEIVLQYLRRFPTSIDLAVSVAYCLQTVTEDNPELLKSFDGTALRVLESALLCPVASMEYILLKTLVAGTIWNLKDIIPSKSQAEIINAILGALSEVLGMNTGNMVIQMKEAETQRLKTAAESEDILANANGDDLVEDDEMEEIPHKRKLRRKTFISDLLPPTDKELREAMALLTAQQTALEVIVNMCCSEDPSDDEWEELSSSDESEAFMENSFSECSGHLMSPLCLSHEIHSALTNCLIPEKVFEKTSSPNSVAVDICSKNPTWKPLIRKMNTIQCRALMCLQSLVSLLDIDHLGGAPALQTLAQHLSQILFSQPDFAKHDDFLEAISSALRALLQTMASKNIPQCMTPEQLMTLCREGIHSSSIGVRVNVVSILGITGSVLAKDDGTLDTLKTIGCFLLEVATKDPSLVVTGEALDALFDVFADGEAAEKASVQIKLLAALKEFQPVFKMKIRKEGRGKYSPDQLCVLDNVKMNLRRFIAYQETVEKRLTS
In the case of B5, the binding entry is on record as “binds”.

B6: Latrophilin-1 (protein, UniProt Q80TR1 29-1466)
chain: GLPFGLMRRELACEGYPIELRCPGSDVIMVENANYGRTDDKICDADPFQMENVQCYLPDAFKIMSQRCNNRTQCVVVAGSDAFPDPCPGTYKYLEVQYDCVPYIFVCPGTLQKVLEPTSTHESEHQSGAWCKDPLQAGDRIYVMPWIPYRTDTLTEYASWEDYVAARHTTTYRLPNRVDGTGFVVYDGAVFYNKERTRNIVKYDLRTRIKSGETVINTANYHDTSPYRWGGKTDIDLAVDENGLWVIYATEGNNGRLVVSQLNPYTLRFEGTWETGYDKRSASNAFMVCGVLYVLRSVYVDDDSEAAGNRVDYAFNTNANREEPVSLAFPNPYQFVSSVDYNPRDNQLYVWNNYFVVRYSLEFGPPDPSAGPATSPPLSTTTTARPTPLTSTASPAATTPLRRAPLTTHPVGAINQLGPDLPPATAPAPSTRRPPAPNLHVSPELFCEPREVRRVQWPATQQGMLVERPCPKGTRGIASFQCLPALGLWNPRGPDLSNCTSPWVNQVAQKIKSGENAANIASELARHTRGSIYAGDVSSSVKLMEQLLDILDAQLQALRPIERESAGKNYNKMHKRERTCKDYIKAVVETVDNLLRPEALESWKDMNATEQVHTATMLLDVLEEGAFLLADNVREPARFLAAKQNVVLEVTVLNTEGQVQELVFPQEYPSENSIQLSANTIKQNSRNGVVKVVFILYNNLGLFLSTENATVKLAGEAGTGGPGGASLVVNSQVIAASINKESSRVFLMDPVIFTVAHLEAKNHFNANCSFWNYSERSMLGYWSTQGCRLVESNKTHTTCACSHLTNFAVLMAHREIYQGRINELLLSVITWVGIVISLVCLAICISTFCFLRGLQTDRNTIHKNLCINLFLAELLFLVGIDKTQYEVACPIFAGLLHYFFLAAFSWLCLEGVHLYLLLVEVFESEYSRTKYYYLGGYCFPALVVGIAAAIDYRSYGTEKACWLRVDNYFIWSFIGPVSFVIVVNLVFLMVTLHKMIRSSSVLKPDSSRLDNIKSWALGAIALLFLLGLTWAFGLLFINKESVVMAYLFTTFNAFQGVFIFVFHCALQKKVHKEYSKCLRHSYCCIRSPPGGTHGSLKTSAMRSNTRYYTGTQSRIRRMWNDTVRKQTESSFMAGDINSTPTLNRGTMGNHLLTNPVLQPRGGTSPYNTLIAESVGFNPSSPPVFNSPGSYREPKHPLGGREACGMDTLPLNGNFNNSYSLRSGDFPPGDGGPEPPRGRNLADAAAFEKMIISELVHNNLRGASGGAKGPPPEPPVPPVPGVSEDEAGGPGSADRAEIELLYKALEEPLLLPRAQSVLYQSDLDESESCTAEDGATSRPLSSPPGRDSLYASGANLRDSPSYPDSSPEGPNEALPPPPPAPPGPPEIYYTSRPPALVARNPLQGYYQVRRPSHEGYLAAPSLEGPGPDGDGQMQLVTSL
In the case of B6, the binding result is “binds”.
